# Experimental data published in article PMC10648710.
# Protein sequences, listed by entry. Tags and fused reporters are not part of them. Lines headed by an entry give the natural chain unless they say otherwise; changes in a name come on top.
# UniProt A2DLR2: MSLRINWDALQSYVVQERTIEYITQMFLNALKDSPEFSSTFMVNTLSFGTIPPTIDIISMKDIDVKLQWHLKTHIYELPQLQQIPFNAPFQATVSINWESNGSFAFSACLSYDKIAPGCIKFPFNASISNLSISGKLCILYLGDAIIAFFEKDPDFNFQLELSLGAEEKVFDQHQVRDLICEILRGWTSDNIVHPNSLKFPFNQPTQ
# UniProt A2DK90: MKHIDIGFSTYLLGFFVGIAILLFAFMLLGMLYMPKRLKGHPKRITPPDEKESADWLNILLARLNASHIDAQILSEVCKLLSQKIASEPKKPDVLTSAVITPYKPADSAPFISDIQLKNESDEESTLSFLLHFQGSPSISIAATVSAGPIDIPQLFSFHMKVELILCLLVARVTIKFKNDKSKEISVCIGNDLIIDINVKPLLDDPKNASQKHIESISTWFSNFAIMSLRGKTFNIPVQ
# UniProt A2EJI4: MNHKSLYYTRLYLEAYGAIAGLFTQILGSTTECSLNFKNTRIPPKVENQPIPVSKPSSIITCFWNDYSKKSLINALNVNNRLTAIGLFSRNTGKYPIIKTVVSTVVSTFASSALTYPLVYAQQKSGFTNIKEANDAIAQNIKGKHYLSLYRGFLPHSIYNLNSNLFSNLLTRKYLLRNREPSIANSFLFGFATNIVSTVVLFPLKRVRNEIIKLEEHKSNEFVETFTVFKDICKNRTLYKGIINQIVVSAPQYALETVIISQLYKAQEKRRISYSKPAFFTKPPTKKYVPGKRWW
# No constants are given. Whether binding was seen depends on the method and setting. Binding seen in cells or lysates may run through a third protein. A yes stands for co-enrichment or nearness to the bait. Other partners may have been found. For part of these data: No binding means not detected with the bait.
# T1: Porin2 (Trichomonas vaginalis) (UniProt A2EKF2)
# T1 sequence: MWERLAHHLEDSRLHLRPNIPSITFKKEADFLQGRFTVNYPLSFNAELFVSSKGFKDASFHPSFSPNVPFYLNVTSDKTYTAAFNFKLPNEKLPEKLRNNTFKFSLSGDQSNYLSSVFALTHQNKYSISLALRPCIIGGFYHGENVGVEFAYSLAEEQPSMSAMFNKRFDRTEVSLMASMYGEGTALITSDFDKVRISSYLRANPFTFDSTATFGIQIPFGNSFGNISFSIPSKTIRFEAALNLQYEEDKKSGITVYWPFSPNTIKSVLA
# T2: TvMmm2b (Trichomonas vaginalis) (UniProt A2G1M4)
# T2 sequence: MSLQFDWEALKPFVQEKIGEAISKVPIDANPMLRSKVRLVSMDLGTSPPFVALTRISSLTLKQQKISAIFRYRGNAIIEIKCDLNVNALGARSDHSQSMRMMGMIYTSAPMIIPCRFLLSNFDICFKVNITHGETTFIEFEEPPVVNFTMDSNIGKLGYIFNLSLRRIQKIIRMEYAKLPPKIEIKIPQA
# T3: TvMmm1b (Trichomonas vaginalis) (UniProt A2FPM6)
# T3 sequence: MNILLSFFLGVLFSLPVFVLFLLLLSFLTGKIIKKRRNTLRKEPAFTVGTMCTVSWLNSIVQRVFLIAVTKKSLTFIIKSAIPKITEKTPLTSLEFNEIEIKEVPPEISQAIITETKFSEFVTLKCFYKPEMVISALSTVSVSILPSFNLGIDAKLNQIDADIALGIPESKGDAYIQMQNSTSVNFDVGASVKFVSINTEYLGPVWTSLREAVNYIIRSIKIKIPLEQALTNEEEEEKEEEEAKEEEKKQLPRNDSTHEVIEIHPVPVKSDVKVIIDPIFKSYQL
# How the values were obtained:
# Assay in all cases: affinity purification with mass spectrometry; T. vaginalis cells expressing C-terminally HA-tagged bait cross-linked with 1 mM DSP (room temperature, 30 min), solubilised in 50 mM TRIS, 150 mM NaCl, pH 7.2 with 1% Triton X-100; anti-HA Dynabeads 90 min at room temperature; LFQ MS against untransfected T1 control, FDR 0.05, S = 1; three independent coIPs for each bait
# [1] = target: T1, Porin2 (Trichomonas vaginalis)
# [2] = target: T2, TvMmm2b (Trichomonas vaginalis)
# [3] = target: TvMdm12 (Trichomonas vaginalis) (UniProt A2DLR2)
# [4] = target: TvMmm1a (Trichomonas vaginalis) (UniProt A2DK90)
# [5] = target: T3, TvMmm1b (Trichomonas vaginalis)
binding [1],binding [2],binding [3],Molecule,other results
no binding,–,–,TvMmm1a (from UniProt A2DK90),–
binds,–,–,Hmp36-1,–
binds,–,–,Hmp35-2,–
binds,binds,binds,mitochondrial carrier protein (TVAG_197670) (from UniProt A2EJI4),–
binds,–,–,Sam50,–
binds,–,–,Hmp36-2,–
–,–,–,"TvMmm1d (protein, UniProt A2FL26 1-187) MFGTRPIPYKMTKESTDWLNFIIYRVLTHFQTPESIAKINALVNDKVKPAKFELLTLGNSPVIPYVATLDVNNKDDIKILIPLTWEEGPSLNFSMLNENLTAEVDLKLFKGTLLVSWPTNQEIDLEIRFINDCKIDFDVSLILFKNTWLPLSSIPLFGPVIKGLISFFMTKGAIKVKAEIQIPDELR",binding [4]: binds
–,binds,binds,"conserved hypothetical protein CHP-2 (protein, UniProt A2EK77 1-407) MVIIQLNNRTLQRINDYNAQDKVTLTINNIEIVFNKSFAIAISQMIYSQYLLDKNIDKIDINSDIMSNDTYNILKDFFQYRITEIEVDETVIKDLLHLGMSLGIQELIDLYKSNVIDKKKLDTTNCIQLLEFYMDLSWNEKLIECTDFIAEHFYKIDQNQLKLISKKLGVDILKQILNNKKLEITDEDSLAKFIISLARKDVVFSSLFENIYFEFCKEETIREMKDFVTSDNYQDVVNSLVDSIIRSRDPKNKDRCGGKEVTNYFESGNVVMSASSIDNGSAEIINKYRNDTYFQSRGEPNSWIEWKLKQNYLIQPTSYIVRTSPTYTSFLSRLQSWKVEGLTINGETKVIHEVSNSLLHEGEIRKYDIISHDRFVSFKLIQTGKNSTNTDHLLIDVFDFSGKVLEI",–
binds,–,–,"PloopNTPase (TVAG_190360) (protein, UniProt A2DKG4 1-465) MTEKESNHPDTELEEGKIEQEESKTNAHETLKETEAQLESAFKEAADEKSATPSKWEQWKPYLLKFREPKVIYTITFIYILLFLIILLWKLIAFRRSKVEYETPIGYIWNMKFKNEIIKYINQRRHDQFVIVHGPKGYGKTRGIRVLSSELISEGRTPFIFDFQKISKTATKKDARKVLQSQLLMNLMKIDGRTIDIPMAKAVQLLTPLTVLKETVPKTIHFQFKDQNLQKIASLLLQIAYGFERNPATTMNNLFEAIDALAALRPVIFIVSPEILLNNNHKEISDLYTSILQNLRSFAEAYKSTPTVTEISDQTLVPEILTIPSCRALYLGELQFEEVESLSNDKYFNLNDVKKIYNKFGGYGGAFATIRDNRRDGIPIQSTIDEIDFSDKEWLSTVVYSSKNVKKTVAYLKDVASVKKDVLYNPENEECFYLVKSGIISILEDNKRLTFQSKSLKALFDSSSF",binding [5]: binds
–,binds,binds,"protein with protein kinase domain (TVAG_452010) (protein, UniProt A2DJS3 1-317) MSFPDEFQEPTLENETEEDEEEEEEEENDEDAPPQERVLPFEIDNYEVFAKLTAKLHSACYEATNKNTKSKCVIKYLPSRSRFRKFKDEKIEILGILNHSNIVSIERIIMQEDFNAIVMPFYKKGDLYERIFDNKKITLENASKMMWGLVNVVKHMHCLSCIHGNISLSNILVESKTKVIITGFSMATMNKFIDSHGPMTLYTAPEVETTHKLTFATDVFALGTVFYYLLMNTYEVNKDPSKLPQDAQVLLSGMVNPNPKKRFTIFHVASNKFFYDHIPEIDMKNALVNVVGNRCLEVNTAIMEGETMIEGSDEILF",–
–,binds,binds,"conserved hypothetical protein CHP-1 (protein, UniProt A2DZI9 1-287) MEGTYSTLTEVILAVFQHEQTSLLSLDKICEQVNSPDLRLDNGKGVPVPCTSISRRRISSILSSSEFFIRAGPPRSCIWALRPQNPLFLSNGALASAIEQTLTEHGPLQTEDFVTLTGLSGSNESVFSHFFLSHPDEYSMDKDNRWWFANQPQPIRQQFENVVVAIVHALHALGQESSIEEIHWYLCLATTDGNKRISRRKISRELSRRTDLFQHISRAKYSLLQPQQNQFPRKVIPEPIISKVFEPAPLTMDFQYDFPQCETPPCVNNDIFDANDFFGLSFSCNFD",–
–,binds,binds,"protein with EF hand-type calcium-binding domain (TVAG_290210) (protein, UniProt A2F7P7 1-766) MEHVLLFLNDMREKARRKGGNLYDMFEEYDPKQTGLISFTNFRKLLANINLFVDDEKFEFITTPYSEGTNFYYAVFLHDMEDAKVDKTNKTISIEELRQFGSTFRDQGTDVAGCLKLYDRHHTGRVDPQVFFRYVSNTPLAQKIAAEYMNSATREIEYMRLNQDIQNALAQKPPSTPRIDSSQLPAFFPDLAKWMKSQAIDPVQLLMRYDRYKRRQIPTAQFLSEVANWGVPLKPLQLNELAAAFDYQGQFDYMAFADEIQKIQTTLTKPTSARKPVIDLNEILNRLTEFIQNRRPTLVDQIEGFDIRHNGTVPSQRFFRVLTNSGFSLTNDECGVIENEFGDINGNIDYNRFFSQVMPKSAPQANPDEIVIRLNNFLKANKMQLKPRLERFDNTRSGSVTFAQMSAAFRAIGFDLTAPEQSALKAAYGHGPEGIVDYIDFYDLVDPKFEKPKEEKLEPLPRHDRNEDASISLAAMTKIAAICDRYQHNLSGEFRKYDMKNNGLILPDAFRCVIQNLPMRVEDNETEVLTKFYTSAGGYVSYEQFCQDMVDFGSKRIMQNPKIQTDLLAQEKTNSQNVDLVLHKLKIFLMNGRISPDTIFLPYDASSSGLIPRSRLQPILEGIGFPGLPSDFAVLGKAFADPRLPEKLNYKKLCQEINAINIDQRELAETRVDNLSETVADASTLRINCMIREKLAERHKRVRQPFSGVTSQLMSQRDFRRCIESYGLVIKEADMQNIMRVYKRNMNGDIDWNRFCTDVENANVIH",–
no binding,–,–,"TvMmm1b (protein, UniProt A2FPM6 1-285) MNILLSFFLGVLFSLPVFVLFLLLLSFLTGKIIKKRRNTLRKEPAFTVGTMCTVSWLNSIVQRVFLIAVTKKSLTFIIKSAIPKITEKTPLTSLEFNEIEIKEVPPEISQAIITETKFSEFVTLKCFYKPEMVISALSTVSVSILPSFNLGIDAKLNQIDADIALGIPESKGDAYIQMQNSTSVNFDVGASVKFVSINTEYLGPVWTSLREAVNYIIRSIKIKIPLEQALTNEEEEEKEEEEAKEEEKKQLPRNDSTHEVIEIHPVPVKSDVKVIIDPIFKSYQL",binding [4]: binds
–,–,binds,"Porin2 (protein, UniProt A2EKF2 1-270) MWERLAHHLEDSRLHLRPNIPSITFKKEADFLQGRFTVNYPLSFNAELFVSSKGFKDASFHPSFSPNVPFYLNVTSDKTYTAAFNFKLPNEKLPEKLRNNTFKFSLSGDQSNYLSSVFALTHQNKYSISLALRPCIIGGFYHGENVGVEFAYSLAEEQPSMSAMFNKRFDRTEVSLMASMYGEGTALITSDFDKVRISSYLRANPFTFDSTATFGIQIPFGNSFGNISFSIPSKTIRFEAALNLQYEEDKKSGITVYWPFSPNTIKSVLA",binding [4]: no binding; binding [5]: no binding
